# Test results from US20170189504A1, “NOVEL PEPTIDES AND COMBINATION OF PEPTIDES FOR USE IN IMMUNOTHERAPY AGAINST VARIOUS CANCERS” (immatics biotechnologies GmbH, priority 2015, published 2017).
# System: HLA-A*02
# Test: Identification and relative LC-MS quantitation of HLA-A*02-presented tumor-associated peptides on tissue samples (presentation profiles, Tables 13A, 13B, 15, FIG. 1)
# Design: species or system human; key to Presentation score NHL / Presentation score CLL / Presentation score BRCA / Presentation score AML / Presentation score GB / Presentation score NSCLC / Presentation score GBC_CCC / Presentation score UEC / Presentation score MEL / Presentation score OSCAR / Presentation score GC / Presentation score UBC / Presentation score OC / Presentation score RCC / Presentation score CRC / Presentation score PCA / Presentation score HCC / Presentation score PC / Presentation score SCLC: specifically presented on tumors (++++); very highly over-presented on tumors compared to a panel of normal tissues (+++); highly over-presented on tumors compared to a panel of normal tissues (++); over-presented on tumors compared to a panel of normal tissues (+)
# Conditions: for Presentation score CLL: chronic lymphocytic leukemia (N = 17) vs panel of normal tissues (N = 262); for Presentation score OSCAR: esophageal cancer, including cancer of the gastric-esophageal junction (N = 17) vs panel of normal tissues (N = 262); for Presentation score NHL: non-Hodgkin lymphoma (N = 18) vs panel of normal tissues (N = 262); for Presentation score OC: ovarian cancer (N = 20) vs panel of normal tissues (N = 262); for Presentation score UBC: urinary bladder cancer (N = 16) vs panel of normal tissues (N = 262); for Peptide Presentation on cancer entities: HLA-A*02-binding tumor-associated peptides; for Presentation score MEL: melanoma (N = 7) vs panel of normal tissues (N = 262); for Presentation score AML: acute myeloid leukemia (N = 18) vs panel of normal tissues (N = 262); for Presentation score BRCA: breast cancer (N = 17) vs panel of normal tissues (N = 262); for Presentation score CRC: colorectal cancer (N = 28) vs panel of normal tissues (N = 262); for Presentation score GB: glioblastoma (N = 41) vs panel of normal tissues (N = 262); for Presentation score HCC: hepatocellular carcinoma (N = 16) vs panel of normal tissues (N = 262); for Presentation score NSCLC: non-small cell lung cancer (N = 90) vs panel of normal tissues (N = 262); for Presentation score SCLC: small cell lung cancer (N = 19) vs panel of normal tissues (N = 262); for number of cancer tissues where the peptide was found to be presented / number of cell lines where the peptide was found to be presented: FIG. 1, A*02 positive samples, only samples with presentation shown
# [1] = Table 13A, cancer entities on which the peptide was found presented
# [2] = Table 13B, presentation on additional cancer entities
Substance,Presentation score CLL (HLA-A*02 peptides),Presentation score NHL (HLA-A*02 peptides),Peptide Presentation on cancer entities [1],Peptide Presentation on cancer entities [2],Presentation score NSCLC (HLA-A*02 peptides),also measured
153 (FISERVEVV; listed as Homo sapiens) [compound 153],+,++,"NSCLC, PCA, CLL, OSCAR, OC, UBC, NHL","SCLC, UEC",,Presentation score OSCAR (HLA-A*02 peptides): +; Presentation score OC (HLA-A*02 peptides): ++; Presentation score UBC (HLA-A*02 peptides): +
154 (RLLGTEFQV; listed as Homo sapiens) [compound 154],,,,SCLC,,Presentation score MEL (HLA-A*02 peptides): +
156 (ILGDLSHLL; listed as Homo sapiens) [compound 156],,,"NSCLC, PC",,,"Presentation score PC (HLA-A*02 peptides, pancreatic cancer (N = 16) vs panel of normal tissues (N = 262)): ++"
157 (TLTSLLAQA; listed as Homo sapiens) [compound 157],,,UBC,"NSCLC, CRC, HNSCC",,Presentation score UBC (HLA-A*02 peptides): +
229 (AILAHLNTV; listed as Homo sapiens) [compound 229],++++,++++,"GB, NSCLC, HCC, CLL, OSCAR, OC, SCLC, UBC, BRCA, CRC, AML, NHL","UEC, HNSCC",++++,Presentation score AML (HLA-A*02 peptides): ++++; Presentation score BRCA (HLA-A*02 peptides): ++++; Presentation score CRC (HLA-A*02 peptides): ++++; Presentation score OSCAR (HLA-A*02 peptides): ++++; Presentation score GB (HLA-A*02 peptides): ++++; Presentation score HCC (HLA-A*02 peptides): ++++; Presentation score OC (HLA-A*02 peptides): ++++; Presentation score SCLC (HLA-A*02 peptides): ++++; Presentation score UBC (HLA-A*02 peptides): ++++
233 (HLFDAFVSV; listed as Homo sapiens) [compound 233],,++++,"NSCLC, UBC, BRCA, CRC, AML, NHL",MEL,++++,Presentation score AML (HLA-A*02 peptides): ++++; Presentation score BRCA (HLA-A*02 peptides): ++++; Presentation score CRC (HLA-A*02 peptides): ++++; Presentation score UBC (HLA-A*02 peptides): ++++
234 (LLSPHNPAL; listed as Homo sapiens) [compound 234],++++,++++,"NSCLC, CLL, OSCAR, OC, UBC, BRCA, NHL","GB, HCC, SCLC, UEC, MEL, RCC",++++,Presentation score BRCA (HLA-A*02 peptides): ++++; Presentation score OSCAR (HLA-A*02 peptides): ++++; Presentation score OC (HLA-A*02 peptides): ++++; Presentation score UBC (HLA-A*02 peptides): ++++
237 (ALAPHLDDA; listed as Homo sapiens) [compound 237],,,"GB, NSCLC, HCC, OC, UBC, UEC, BRCA, MEL","SCLC, AML",++++,"number of cancer tissues where the peptide was found to be presented: 10; number of cell lines where the peptide was found to be presented: 1; Presentation score BRCA (HLA-A*02 peptides): ++++; Presentation score GB (HLA-A*02 peptides): ++++; Presentation score HCC (HLA-A*02 peptides): ++++; Presentation score MEL (HLA-A*02 peptides): ++++; Presentation score OC (HLA-A*02 peptides): ++++; Presentation score UBC (HLA-A*02 peptides): ++++; Presentation score UEC (HLA-A*02 peptides, uterine cancer (N = 15) vs panel of normal tissues (N = 262)): ++++"
238 (GLYERPTAA; listed as Homo sapiens) [compound 238],,,"NSCLC, PCA, PC, AML","GC, MCC, OSCAR, CRC, NHL",,Presentation score AML (HLA-A*02 peptides): ++
240 (YMGEEKLIASV; listed as Homo sapiens) [compound 240],++,,,"UEC, NHL",+,Presentation score MEL (HLA-A*02 peptides): +; Presentation score UBC (HLA-A*02 peptides): +
243 (FMADDIFSV; listed as Homo sapiens) [compound 243],,++++,NHL,SCLC,,
244 (YLLEKNRVV; listed as Homo sapiens) [compound 244],,,"NSCLC, OSCAR, OC",HNSCC,++++,Presentation score OSCAR (HLA-A*02 peptides): ++++; Presentation score OC (HLA-A*02 peptides): ++++
245 (SLLDLPLSL; listed as Homo sapiens) [compound 245],++++,++++,"CLL, NHL","NSCLC, RCC, AML, HNSCC",,
248 (YLDRFLAGV; listed as Homo sapiens) [compound 248],,,"GB, NSCLC, PCA, CLL, CRC, AML, NHL","SCLC, HNSCC",,Presentation score AML (HLA-A*02 peptides): +
250 (SLAPATPEV; listed as Homo sapiens) [compound 250],,,"MEL, NHL","BRCA, HNSCC",,
252 (RLMEICESL; listed as Homo sapiens) [compound 252],,,AML,"UEC, MEL",,Presentation score AML (HLA-A*02 peptides): ++++
255 (SLLHFTENL; listed as Homo sapiens) [compound 255],,++++,"AML, NHL","NSCLC, CRC",,Presentation score AML (HLA-A*02 peptides): ++++
256 (SLGEEQFSV; listed as Homo sapiens) [compound 256],,++++,"MEL, NHL",,,Presentation score MEL (HLA-A*02 peptides): ++++
257 (GLYTDPCGV; listed as Homo sapiens) [compound 257],,++++,"NSCLC, NHL",HNSCC,++++,
259 (ILLPRIIEA; listed as Homo sapiens) [compound 259],,,"NSCLC, OC","GB, GC, CLL, SCLC, UEC, BRCA, MEL, CRC, PC, HNSCC",++++,number of cancer tissues where the peptide was found to be presented: 27; number of cell lines where the peptide was found to be presented: 1; Presentation score OC (HLA-A*02 peptides): ++++
261 (QLQDRVYAL; listed as Homo sapiens) [compound 261],,+,"NSCLC, HCC, CLL, OSCAR, OC, SCLC, UBC, BRCA, RCC, CRC, NHL",MEL,+,Presentation score CRC (HLA-A*02 peptides): +; Presentation score OC (HLA-A*02 peptides): +
262 (FMVDKAIYL; listed as Homo sapiens) [compound 262],,+++,"GC, NSCLC, PCA, OSCAR, OC, SCLC, BRCA, GBC_CCC, CRC, PC, NHL","UEC, MEL, HNSCC",+++,"Presentation score BRCA (HLA-A*02 peptides): +; Presentation score CRC (HLA-A*02 peptides): ++; Presentation score GBC_CCC (HLA-A*02 peptides, gallbladder adenocarcinoma and cholangiocarcinoma (N = 6) vs panel of normal tissues (N = 262)): +; Presentation score PCA (HLA-A*02 peptides, prostate cancer and benign prostate hyperplasia (N = 39) vs panel of normal tissues (N = 262)): +; Presentation score SCLC (HLA-A*02 peptides): +++"
263 (VLLSEQGDVKL; listed as Homo sapiens) [compound 263],+,+,"NSCLC, PCA, CLL, OSCAR, OC, MEL, NHL","UEC, AML",+++,Presentation score OSCAR (HLA-A*02 peptides): +; Presentation score MEL (HLA-A*02 peptides): +
264 (KLFPQETLFL; listed as Homo sapiens) [compound 264],+,,"NSCLC, CLL, OSCAR, AML, NHL",,+,Presentation score AML (HLA-A*02 peptides): +
265 (NTCPYVHNI; listed as Homo sapiens) [compound 265],+,,"GB, CLL",,,Presentation score GB (HLA-A*02 peptides): +++
266 (YAIGLVMRL; listed as Homo sapiens) [compound 266],+,,"CLL, BRCA, AML","HCC, GBC_CCC, MEL",,Presentation score AML (HLA-A*02 peptides): +++
293 (FLVDGSWSI; listed as Homo sapiens) [compound 293],,,,,,Presentation score GB (HLA-A*02 peptides): ++++
305 (KLFTSVFGV; listed as Homo sapiens) [compound 305],,,,AML,,number of cancer tissues where the peptide was found to be presented: 5
